According to article PMC11876601 (Molecular Systems Biology, 2025):

Assays:
Assay in all cases: Drug combination viability screen (ATPlite, 72 h)
Format in all cases: cell-based, human
AsPC-1 cells = tested on: AsPC-1 cells
Method: (§1) Cell viability was assessed by measuring ATP levels to indicate metabolic activity.
(§2) Afterward, small amounts were transferred to 384-well intermediate plates (Greiner Bio-One GmbH, Germany). […] For drug combination screening, 1000 to 5000 cells were seeded into 384-well plates (CulturPlate™, Perkin Elmer, MA, USA) using a Multidrop™ Combi Reagent Dispenser (Thermo Scientific, MA, USA) in 50 µl medium per well 24 h prior to drug treatment (seeding densities see Appendix Table S1). […] The final DMSO concentration in each well was 0.2%. […] Eight wells per plate without library drug served as negative controls, and sixteen wells per plate containing 5 µM Staurosporine served as positive controls. Control plates not containing any drug were used to correct for incubation effects, and data quality was assessed by calculation of Z-prime of positive and negative controls according to1 Z-prime=1−3SDpos+3SDneg/[…] where SD is the standard deviation. […] Dose–response curves from the experimental and hypothetical data were compared, and shifts in AUC were used to describe combination effects (AUC∆ = AUChypothetical − AUCexperimental). […] Only combinations with R^2 > 0.8 in both conditions were considered in the synergy analysis.

Capan-1 cells = tested on: Capan-1 cells
Method: as §1, §2

[1] = tested on: HPDE (immortalized pancreatic duct cell line); settings: combination with GEM; sentence removed from manuscript, quoted in peer review file
Method: as §1, §2

MiaPaCa-2 cells = tested on: MiaPaCa-2 cells
Method: as §1, §2

PANC-1 cells = tested on: PANC-1 cells
Method: as §1, §2

PaTu-8988-T cells = tested on: PaTu-8988-T cells
Method: as §1, §2

C[C@@H]1COCCN1c1cc(-c2ccnn2C)c2ccnc(-c3ccn[nH]3)c2n1 [Elimusertib]
AUC∆_GEM high (AsPC-1 cells): 12.17% | AUC∆_GEM low (AsPC-1 cells): 11.34% | AUC∆_sum (AsPC-1 cells): 23.51% | AUC∆_sum_greater10 (AsPC-1 cells): TRUE | any_comb_AUC_lower80 (AsPC-1 cells): TRUE | AUC∆_GEM high (Capan-1 cells): 16.93% | AUC∆_GEM low (Capan-1 cells): 6.09% | AUC∆_sum (Capan-1 cells): 23.02% | AUC∆_sum_greater10 (Capan-1 cells): TRUE | any_comb_AUC_lower80 (Capan-1 cells): TRUE | ΣAUC∆ [1]: 15% | AUC∆_GEM high (MiaPaCa-2 cells): 39.45% | AUC∆_GEM low (MiaPaCa-2 cells): 5.93% | AUC∆_sum (MiaPaCa-2 cells): 45.38% | AUC∆_sum_greater10 (MiaPaCa-2 cells): TRUE | any_comb_AUC_lower80 (MiaPaCa-2 cells): TRUE | AUC∆_GEM high (PANC-1 cells): 18.66% | AUC∆_GEM low (PANC-1 cells): 7.17% | AUC∆_sum (PANC-1 cells): 25.83% | AUC∆_sum_greater10 (PANC-1 cells): TRUE | any_comb_AUC_lower80 (PANC-1 cells): TRUE | AUC∆_GEM high (PaTu-8988-T cells): 37.89% | AUC∆_GEM low (PaTu-8988-T cells): 22.59% | AUC∆_sum (PaTu-8988-T cells): 60.47% | AUC∆_sum_greater10 (PaTu-8988-T cells): TRUE | any_comb_AUC_lower80 (PaTu-8988-T cells): TRUE
